Assay results reported in paper PMC4712785.
No constants are given. Whether binding was seen depends on the method and setting. Binding seen in cells or lysates may run through a third protein. Some binding calls cover weakened binding; strength is not graded here. Tags and fused reporters may be left off the sequences shown.

Protein sequences, listed by entry. Tags and fused reporters are not part of them.
UniProt P06780: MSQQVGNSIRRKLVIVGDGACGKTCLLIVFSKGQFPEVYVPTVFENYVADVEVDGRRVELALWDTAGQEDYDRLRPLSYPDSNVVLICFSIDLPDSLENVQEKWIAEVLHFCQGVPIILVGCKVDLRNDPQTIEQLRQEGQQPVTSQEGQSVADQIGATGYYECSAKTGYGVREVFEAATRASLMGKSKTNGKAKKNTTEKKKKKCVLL

Assays:
Test in all cases: pull-down; GST or GST–α-arrestins from BJ5459 GEV yeast extracts on glutathione-agarose beads, washed, incubated 2 h at 4°C with extract of cells expressing HA-Rho1; 100 mM NaCl, 0.2% Triton X-100, 15 mM EGTA, 50 mM Tris-HCl pH 7.4; immunoblot anti-HA and anti-GST; only the target purified
GST–Rog3 (S. cerevisiae) = target: T1, GST–Rog3 (S. cerevisiae) (UniProt P43602)
T1 sequence: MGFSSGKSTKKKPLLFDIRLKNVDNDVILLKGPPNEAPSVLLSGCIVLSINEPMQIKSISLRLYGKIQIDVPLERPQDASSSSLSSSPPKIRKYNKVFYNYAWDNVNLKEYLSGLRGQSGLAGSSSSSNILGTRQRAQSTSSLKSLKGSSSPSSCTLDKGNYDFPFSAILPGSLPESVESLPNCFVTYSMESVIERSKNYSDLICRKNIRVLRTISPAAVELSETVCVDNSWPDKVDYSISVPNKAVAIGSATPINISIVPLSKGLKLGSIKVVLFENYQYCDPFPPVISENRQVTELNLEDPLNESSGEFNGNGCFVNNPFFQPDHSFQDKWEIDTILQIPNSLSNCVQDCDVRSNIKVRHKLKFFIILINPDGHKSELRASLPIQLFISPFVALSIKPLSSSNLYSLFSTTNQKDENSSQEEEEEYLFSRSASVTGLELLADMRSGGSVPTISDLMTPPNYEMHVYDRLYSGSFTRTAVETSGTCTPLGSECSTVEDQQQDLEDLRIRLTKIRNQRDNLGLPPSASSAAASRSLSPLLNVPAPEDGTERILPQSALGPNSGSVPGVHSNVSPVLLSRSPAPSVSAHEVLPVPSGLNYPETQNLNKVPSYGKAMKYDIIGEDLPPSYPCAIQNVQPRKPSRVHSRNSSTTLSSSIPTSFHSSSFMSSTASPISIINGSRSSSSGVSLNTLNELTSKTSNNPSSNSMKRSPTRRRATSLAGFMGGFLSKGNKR

[1] = target: T2, GST–Ldb19 (S. cerevisiae) (UniProt Q12502)
T2 sequence: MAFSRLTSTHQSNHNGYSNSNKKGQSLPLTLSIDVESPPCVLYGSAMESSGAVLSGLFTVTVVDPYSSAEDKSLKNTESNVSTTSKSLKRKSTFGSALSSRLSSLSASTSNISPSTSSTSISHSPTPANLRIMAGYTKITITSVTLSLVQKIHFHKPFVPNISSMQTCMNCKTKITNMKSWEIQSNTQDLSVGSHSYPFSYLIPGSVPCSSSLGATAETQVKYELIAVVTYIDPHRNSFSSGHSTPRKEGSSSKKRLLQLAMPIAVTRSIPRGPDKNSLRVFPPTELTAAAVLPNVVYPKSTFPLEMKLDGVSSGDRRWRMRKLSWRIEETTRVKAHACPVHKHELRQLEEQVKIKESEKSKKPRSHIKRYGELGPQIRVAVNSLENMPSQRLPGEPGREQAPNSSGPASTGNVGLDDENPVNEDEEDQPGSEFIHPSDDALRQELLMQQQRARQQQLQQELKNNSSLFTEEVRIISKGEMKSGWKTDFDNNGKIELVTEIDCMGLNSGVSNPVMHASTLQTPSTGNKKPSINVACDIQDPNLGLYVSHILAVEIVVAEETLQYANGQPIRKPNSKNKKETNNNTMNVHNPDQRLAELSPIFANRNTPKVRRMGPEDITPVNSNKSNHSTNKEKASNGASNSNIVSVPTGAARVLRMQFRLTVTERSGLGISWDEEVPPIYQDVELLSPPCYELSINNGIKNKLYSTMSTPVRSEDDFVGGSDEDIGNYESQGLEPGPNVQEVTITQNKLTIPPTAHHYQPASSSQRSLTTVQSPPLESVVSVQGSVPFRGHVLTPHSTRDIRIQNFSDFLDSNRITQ

GST–Aly1 (S. cerevisiae) = target: T3, GST–Aly1 (S. cerevisiae) (UniProt P36117)
T3 sequence: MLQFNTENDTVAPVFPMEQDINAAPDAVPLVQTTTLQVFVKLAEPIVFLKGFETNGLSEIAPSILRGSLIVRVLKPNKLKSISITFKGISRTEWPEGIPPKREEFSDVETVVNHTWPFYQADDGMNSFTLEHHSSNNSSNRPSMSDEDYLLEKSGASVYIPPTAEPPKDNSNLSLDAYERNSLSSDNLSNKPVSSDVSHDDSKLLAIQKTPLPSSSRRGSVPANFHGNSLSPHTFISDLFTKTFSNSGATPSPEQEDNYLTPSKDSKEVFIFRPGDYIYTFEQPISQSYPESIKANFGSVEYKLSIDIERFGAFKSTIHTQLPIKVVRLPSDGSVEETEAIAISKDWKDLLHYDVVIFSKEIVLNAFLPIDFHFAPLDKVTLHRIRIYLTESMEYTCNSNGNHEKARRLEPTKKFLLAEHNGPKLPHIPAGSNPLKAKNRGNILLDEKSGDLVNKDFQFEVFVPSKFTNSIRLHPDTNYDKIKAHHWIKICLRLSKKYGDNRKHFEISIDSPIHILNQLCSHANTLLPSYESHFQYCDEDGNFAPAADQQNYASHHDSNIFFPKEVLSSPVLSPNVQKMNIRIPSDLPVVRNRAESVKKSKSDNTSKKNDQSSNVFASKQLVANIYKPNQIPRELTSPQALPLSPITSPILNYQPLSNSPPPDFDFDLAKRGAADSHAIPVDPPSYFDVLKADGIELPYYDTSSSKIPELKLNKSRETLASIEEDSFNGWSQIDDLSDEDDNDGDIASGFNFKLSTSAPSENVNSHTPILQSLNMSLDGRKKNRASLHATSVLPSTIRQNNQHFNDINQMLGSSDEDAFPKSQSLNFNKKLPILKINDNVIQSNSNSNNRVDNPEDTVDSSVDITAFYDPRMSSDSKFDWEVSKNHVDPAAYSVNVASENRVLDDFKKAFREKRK

Measured: binding

HA–Rho1 (from UniProt P06780 1-209)
binds: all assays above
